PubChem BioAssay AID1159584 – Peter MacCallum Cancer Centre, 2016

Screen: 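Genes that CDH1-null MCF10A cells selectively depend on to survive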 (primary screen)
Cells: human MCF10A breast epithelial cells, parental and CDH1-null
Reagents: siRNA against human genes
Detection: 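ATP luminescence (CellTiter-Glo) viability per line relative to mean mock wells over all plates, and the ratio of CDH1-null to parental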
Scale: CDH1-null / parental viability ratio: higher = CDH1-null cells survive relatively better than parental; CDH1-null viability vs mock: higher = more viable CDH1-null cells
The deposit covers about 18,000 reagents; below is an unselected part. Not all columns of the deposit are shown. No sequences are given here. Not given: the amount of reagent, the time to read-out.

ZNF436-AS1
- CDH1-null / parental viability ratio: 0.82
- CDH1-null viability vs mock (fraction of mock): 0.86

TSPAN12
- CDH1-null / parental viability ratio: 1.02
- CDH1-null viability vs mock (fraction of mock): 1.09

OSGIN2
- CDH1-null / parental viability ratio: 0.84
- CDH1-null viability vs mock (fraction of mock): 0.77

LRRC75B
- CDH1-null / parental viability ratio: 0.91
- CDH1-null viability vs mock (fraction of mock): 0.93

OVOL1
- CDH1-null / parental viability ratio: 0.91
- CDH1-null viability vs mock (fraction of mock): 0.7

CHID1
- CDH1-null / parental viability ratio: 0.96
- CDH1-null viability vs mock (fraction of mock): 0.49

TRAPPC4
- CDH1-null / parental viability ratio: 1.02
- CDH1-null viability vs mock (fraction of mock): 0.84

HDAC6
- CDH1-null / parental viability ratio: 0.86
- CDH1-null viability vs mock (fraction of mock): 0.78

SCAF4
- CDH1-null / parental viability ratio: 0.92
- CDH1-null viability vs mock (fraction of mock): 0.94

CNKSR1
- CDH1-null / parental viability ratio: 1.24
- CDH1-null viability vs mock (fraction of mock): 0.46

Targets above whose target name begins with O or o:
OSGIN2
- CDH1-null / parental viability ratio: 0.84
- CDH1-null viability vs mock (fraction of mock): 0.77

OVOL1
- CDH1-null / parental viability ratio: 0.91
- CDH1-null viability vs mock (fraction of mock): 0.7

Further reagents follow:
DCLRE1A
- CDH1-null / parental viability ratio: 0.99
- CDH1-null viability vs mock (fraction of mock): 0.69

MCF2L2
- CDH1-null / parental viability ratio: 0.97
- CDH1-null viability vs mock (fraction of mock): 0.87

GABRA4
- CDH1-null / parental viability ratio: 1
- CDH1-null viability vs mock (fraction of mock): 0.72

MRPL19
- CDH1-null / parental viability ratio: 1.24
- CDH1-null viability vs mock (fraction of mock): 1.15

TRIM74
- CDH1-null / parental viability ratio: 0.93
- CDH1-null viability vs mock (fraction of mock): 0.84

DNAAF6
- CDH1-null / parental viability ratio: 1.04
- CDH1-null viability vs mock (fraction of mock): 0.99

GPR162
- CDH1-null / parental viability ratio: 0.81
- CDH1-null viability vs mock (fraction of mock): 0.72

RRM1
- CDH1-null / parental viability ratio: 0.89
- CDH1-null viability vs mock (fraction of mock): 0.48

PHF21B
- CDH1-null / parental viability ratio: 0.98
- CDH1-null viability vs mock (fraction of mock): 0.96

KLF9
- CDH1-null / parental viability ratio: 0.89
- CDH1-null viability vs mock (fraction of mock): 0.87

THAP3
- CDH1-null / parental viability ratio: 1.26
- CDH1-null viability vs mock (fraction of mock): 0.34

NR3C2
- CDH1-null / parental viability ratio: 1
- CDH1-null viability vs mock (fraction of mock): 1.04

CHORDC1
- CDH1-null / parental viability ratio: 1.24
- CDH1-null viability vs mock (fraction of mock): 0.78

CLIC5
- CDH1-null / parental viability ratio: 1.2
- CDH1-null viability vs mock (fraction of mock): 1.04
